Some results were stated once for a whole list of compounds, not compound by compound.
Experiments:
Type in all cases: in vivo
[1] = tested on: cucumber powdery mildew fungus (Sphaerotheca fuliginea); experiment: Cucumber powdery mildew control test, foliar spray on cucumber (Test Examples 6, 12, Comparative Test Example); conditions: cucumber (SAGAMI HANJIRO), 8 days after inoculation
[2] = tested on: barley net blotch fungus (Pyrenophora teres); experiment: Barley net blotch control test, foliar spray on barley (Test Examples 3, 9); conditions: barley (MIKAMO GOLDEN), inoculated two days after spraying
[3] = tested on: wheat leaf blotch fungus (Septoria tritici); experiment: Wheat leaf blotch control test, foliar spray on wheat (Test Examples 5, 11); conditions: wheat (APOGEE), inoculated four days after spraying
[4] = tested on: barley scald fungus (Rhynchosporium secalis); experiment: Barley scald control test, foliar spray on barley (Test Example 14); conditions: 200 ppm, barley (MIKAMO GOLDEN), inoculated two days after spraying

Measured: area of lesion spots relative to that on an untreated plant

CC(=NOCc1c(Cl)cccc1-n1nnn(C)c1=O)c1cccc(C(F)(F)F)c1 [present compound 23, 1-{3-chloro-2-[1-(3-trifluoromethylphenyl)ethylideneaminooxymethyl]phenyl}-4-methyl-1,4-dihydrotetrazol-5-one]
≤ 30%: [1]; 500 ppm | [2]; 500 ppm | [3]; 500 ppm | [4]

CC(=NOCc1c(Cl)cccc1-n1nnn(C)c1=O)c1cccc(OC(F)(F)F)c1 [present compound 25, 1-{3-chloro-2-[1-(3-trifluoromethoxyphenyl)ethylideneaminooxymethyl]phenyl}-4-methyl-1,4-dihydrotetrazol-5-one]
≤ 30%: [1]; 500 ppm | [2]; 500 ppm | [3]; 500 ppm | [4]

CC(=NOCc1c(C2CC2)cccc1-n1nnn(C)c1=O)c1cccc(C(F)(F)F)c1 [present compound 29, 1-{3-cyclopropyl-2-[1-(3-trifluoromethylphenyl)ethylideneaminooxymethyl]phenyl}-4-methyl-1,4-dihydrotetrazol-5-one]
≤ 30%: [1]; 500 ppm | [2]; 500 ppm | [3]; 500 ppm | [4]

CC(=NOCc1c(C)cccc1-n1nnn(C)c1=O)c1cc(C(F)(F)F)cc(C(F)(F)F)c1 [present compound 40, 1-{3-methyl-2-[1-(3,5-ditrifluoromethylphenyl)ethylideneaminooxymethyl]phenyl}-4-methyl-1,4-dihydrotetrazol-5-one]
≤ 30%: [1]; 500 ppm | [2]; 500 ppm | [4]

CCC(=NOCc1c(C)cccc1-n1nnn(C)c1=O)c1cccc(C(F)(F)F)c1 [present compound 51, 1-methyl-4-{3-methyl-2-[1-(3-trifluoromethylphenyl)propylideneaminooxymethyl]phenyl}-1,4-dihydrotetrazol-5-one]
≤ 30%: [1]; 500 ppm | [2]; 500 ppm | [3]; 500 ppm | [4]

CC(=NOCc1c(C2CC2)cccc1-n1nnn(C)c1=O)c1ccc2ccccc2c1 [present compound 59, 1-{3-cyclopropyl-2-[1-(naphthalen-2-yl)ethylideneaminooxymethyl]phenyl}-4-methyl-1,4-dihydrotetrazol-5-one]
≤ 30%: [1]; 500 ppm | [2]; 500 ppm | [3]; 500 ppm | [4]

CC(=NOCc1c(C2CC2)cccc1-n1nnn(C)c1=O)c1cc(C)cc(C)c1 [present compound 60, 1-{3-cyclopropyl-2-[1-(3,5-dimethylphenyl)ethylideneaminooxymethyl]phenyl}-4-methyl-1,4-dihydrotetrazol-5-one]
≤ 30%: [1]; 500 ppm | [2]; 500 ppm | [3]; 500 ppm | [4]

CC(=NOCc1c(-n2nnn(C)c2=O)cccc1C(F)(F)F)c1cccc(C(F)(F)F)c1 [present compound 64, 1-{3-trifluoromethyl-2-[1-(3-trifluoromethylphenyl)ethylideneaminooxymethyl]phenyl}-4-methyl-1,4-dihydrotetrazol-5-one]
≤ 30%: [1]; 500 ppm | [2]; 500 ppm | [3]; 500 ppm | [4]

Cc1cccc(-n2nnn(C)c2=O)c1CON=C(c1cccc(C(F)(F)F)c1)C(C)C [present compound 73, 1-methyl-4-{3-methyl-2-[2-methyl-1-(3-trifluoromethylphenyl)propylideneaminooxymethyl]phenyl}-4-methyl-1,4-dihydrotetrazol-5-one]
≤ 30%: [1]; 500 ppm | [4]

CC(=O)N(C)c1cccc(C(C)=NOCc2c(C)cccc2-n2nnn(C)c2=O)c1 [present compound 75, N-methyl-N-(3-{1-[2-methyl-6-(4-methyl-5-oxo-4,5-dihydrotetrazol-1-yl)benzyloxyimino]ethyl}phenyl)acetamide]
≤ 30%: [2]; 500 ppm | [3]; 500 ppm | [4]

CCCC(=NOCc1c(C)cccc1-n1nnn(C)c1=O)c1cccc(C(F)(F)F)c1 [present compound 77, 1-{3-methyl-2-[1-(3-trifluoromethylphenyl)butylideneaminooxymethyl]phenyl}-4-methyl-1,4-dihydrotetrazol-5-one]
≤ 30%: [1]; 500 ppm | [3]; 500 ppm | [4]

CC(=NOCc1c(I)cccc1-n1nnn(C)c1=O)c1cccc(C(F)(F)F)c1 [present compound 94, 1-{3-iodo-2-[1-(3-trifluoromethylphenyl)ethylideneaminooxymethyl]phenyl}-4-methyl-1,4-dihydrotetrazol-5-one]
≤ 30%: [1]; 200 ppm | [2]; 200 ppm | [3]; 200 ppm | [4]

CCC(=NOCc1c(C)cccc1-n1nnn(C)c1=O)c1cc(F)cc(C(F)(F)F)c1 [present compound 99, 1-{3-methyl-2-[1-(3-fluoro-5-trifluoromethylphenyl)propylideneaminooxymethyl]phenyl}-4-methyl-1,4-dihydrotetrazol-5-one]
≤ 30%: [1]; 500 ppm | [2]; 500 ppm | [3]; 500 ppm | [4]

CC(=NOCc1c(C2CC2)cccc1-n1nnn(C)c1=O)c1ccc2c(c1)CCCC2 [present compound 106, 1-{3-cyclopropyl-2-[1-(5,6,7,8-tetrahydronaphthalen-2-yl)ethylideneaminooxymethyl]phenyl}-4-methyl-1,4-dihydrotetrazol-5-one]
≤ 30%: [1]; 500 ppm | [2]; 500 ppm | [3]; 500 ppm | [4]

CC(=NOCc1c(-n2nnn(C)c2=O)cccc1C(F)(F)F)c1cccc(Cl)c1 [present compound 112, 1-{2-[1-(3-chlorophenyl)ethylideneaminooxymethyl]-3-trifluoromethylphenyl}-4-methyl-1,4-dihydrotetrazol-5-one]
≤ 30%: [1]; 500 ppm | [2]; 500 ppm | [3]; 500 ppm | [4]

COc1ccc(C(C)=NOCc2c(C3CC3)cccc2-n2nnn(C)c2=O)cc1C(F)(F)F [present compound 141, 1-{3-cyclopropyl-2-[1-(4-methoxy-3-trifluoromethylphenyl)ethylideneaminooxymethyl]phenyl}-4-methyl-1,4-dihydrotetrazol-5-one]
≤ 30%: [2]; 500 ppm | [3]; 500 ppm | [4]

CSC(=NOCc1c(C)cccc1-n1nnn(C)c1=O)c1cccc(C(F)(F)F)c1 [present compound 147, N-[2-methyl-6-(4-methoxy-5-oxo-4,5-dihydrotetrazol-1-yl)benzoyloxy]-3-trifluoromethylthiobenzimidic acid methyl ester]
≤ 30%: [2]; 200 ppm | [3]; 200 ppm | [4]

COc1cccc(-n2nnn(C)c2=O)c1CON=C(C)C=Cc1ccc(Cl)cc1 [present compound 207, 1-{2-[3-(4-chlorophenyl)-1-methylallylideneaminooxymethyl)-3-methoxyphenyl]-4-methyl-1,4-dihydrotetrazol-5-one]
≤ 30%: [2]; 500 ppm | [3]; 500 ppm | [4]

CON=C(C)C(=NOC)C(C)=NOCc1c(C)cccc1-n1nnn(C)c1=O [present compound 211, pentane-2,3,4-trione-2-{O-[2-methyl-6-(4-methyl-5-oxo-4,5-dihydrotetrazol-1-yl)benzyl]oxime}-3,4-bis-(O-methyloxime)]
≤ 30%: [1]; 500 ppm | [3]; 500 ppm | [4]

CON=C(C(C)=NOCc1c(C)cccc1-n1nnn(C)c1=O)c1ccc(Cl)cc1 [present compound 213, 1-(4-chlorophenyl)propane-1,2-dione-2-{O-[2-methyl-6-(4-methyl-5-oxo-4,5-dihydrotetrazol-1-yl)benzyl]oxime}-1-(O-methyloxime)]
≤ 30%: [1]; 500 ppm | [2]; 500 ppm | [4]

Source: patent US9725423B2, “Tetrazolinone compound and applications thereof” (SUMITOMO CHEMICAL COMPANY, LIMITED, priority 2012, dated 2017)
